# Source: PubChem BioAssay AID1259308 (NCATS, 2017)
# Aim: 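Candidate targets for better recombinant protein yield in mammalian cells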 (primary screen)
# Cell system: human HEK293 embryonic kidney cells stably expressing firefly luciferase (HEK-CMV-Luc2-Hygro)
# Knock-down reagent: single siRNA against human genes, 0.8 pmol siRNA per well
# Duration: 72 h
# Detection: 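Reporter luminescence and viable-cell signal on separate replicate plates, given as percent of non-targeting control and median/MAD z-scores, plus per-cell luciferase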
# Scale: total luciferase, z-score and total luciferase, % of control: higher = more reporter protein produced; luciferase per cell, z-score: higher = more reporter output per viable cell; viable cells, % of control: higher = more viable cells
# Call rule: 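Active when the median/MAD z-score for overall luciferase is greater than 3; a gene was taken forward for validation with new siRNAs if at least two of its three siRNAs passed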
# Meaning of the calls: active = raised luciferase; inactive = no rise
# Here is one part, drawn at random, of about 59,000 reagents tested. About 1,510 of all reagents (2.6%) count as active. 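Calls use total luciferase alone and ignore viability, so some active siRNAs may act by altering cell number.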
The first 7 entries, ahead of the listing:
gene knocked down,PubChem SID,"total luciferase, z-score","total luciferase, % of control","luciferase per cell, z-score","viable cells, % of control",call
ELAVL3,SID160730748,2.04,123,1.82,84.7,inactive
ELAVL3,SID160759683,0.0145,82.2,-0.348,101,inactive
ELAVL3,SID160759693,0.825,98.3,0.108,107,inactive
DNAJB7,SID160758955,1.35,109,1.47,82.6,inactive
DNAJB7,SID160758956,0.621,94.2,-0.031,106,inactive
DNAJB7,SID160758957,0.0473,82.8,-0.287,99.8,inactive
RIPOR1,SID160748898,-0.378,74.4,-0.685,99.5,inactive

The listing, repeating the preview:
gene knocked down,PubChem SID,"total luciferase, z-score","total luciferase, % of control","luciferase per cell, z-score","viable cells, % of control",call
ELAVL3,SID160730748,2.04,123,1.82,84.7,inactive
ELAVL3,SID160759683,0.0145,82.2,-0.348,101,inactive
ELAVL3,SID160759693,0.825,98.3,0.108,107,inactive
DNAJB7,SID160758955,1.35,109,1.47,82.6,inactive
DNAJB7,SID160758956,0.621,94.2,-0.031,106,inactive
DNAJB7,SID160758957,0.0473,82.8,-0.287,99.8,inactive
RIPOR1,SID160748898,-0.378,74.4,-0.685,99.5,inactive
RIPOR1,SID160748899,0.76,97,0.702,90.1,inactive
RIPOR1,SID160748900,-0.261,76.7,0.427,76.6,inactive
USP28,SID160746483,-0.116,79.6,-0.446,100,inactive
USP28,SID160746484,-0.54,71.1,-0.354,87.3,inactive
USP28,SID160746486,-0.361,74.7,-0.937,107,inactive
POLR2MP1,SID160764338,0.412,90.1,0.192,95.7,inactive
POLR2MP1,SID160764339,-0.641,69.1,0.801,62.6,inactive
POLR2MP1,SID160764340,-0.849,65,-0.983,94.1,inactive
KRTAP24-1,SID160769009,-0.27,76.5,0.129,82.7,inactive
KRTAP24-1,SID160769010,-0.0803,80.3,-0.0447,90.8,inactive
KRTAP24-1,SID160769011,0.727,96.3,0.74,88.6,inactive
GRIK5,SID160774427,-1.88,44.5,-1.45,72.8,inactive
GRIK5,SID160774436,-0.783,66.3,-0.448,83.4,inactive
GRIK5,SID160774447,2.94,140,1.97,93.4,inactive
AMPD3,SID160717245,-0.152,78.9,1.97,52.5,inactive
AMPD3,SID160717256,0.027,82.4,0.215,87,inactive
AMPD3,SID160717265,-0.547,71,-0.96,102,inactive
TM4SF19,SID160755365,-0.642,69.1,-0.821,95.9,inactive
TM4SF19,SID160755366,1.48,111,0.953,96.7,inactive
TM4SF19,SID160755367,-0.819,65.6,-0.867,92.1,inactive
PRKG1,SID160714970,0.237,86.6,0.546,83.8,inactive
PRKG1,SID160714971,1.27,107,1.24,86.4,inactive
PRKG1,SID160714972,-0.71,67.8,-0.536,87.2,inactive
APBA1,SID160718149,-0.367,74.6,-0.517,95.5,inactive
APBA1,SID160718159,-0.426,73.4,-0.754,100,inactive
APBA1,SID160718169,1.24,106,1.43,81.6,inactive
ADCY10,SID160744422,-1.15,59,-1.35,94.1,inactive
ADCY10,SID160744423,0.786,97.5,0.253,102,inactive
ADCY10,SID160744425,1.13,104,1.16,85.9,inactive
BMF,SID160753698,0.179,85.4,-0.245,102,inactive
BMF,SID160753699,-0.289,76.1,-0.542,98.1,inactive
BMF,SID160753700,-0.0122,81.6,-0.457,103,inactive
ERRFI1,SID160741603,3.08,143,2.15,90.9,active
ERRFI1,SID160741606,-0.422,73.5,-0.593,96,inactive
ERRFI1,SID160741607,-1.03,61.3,-1.08,91.1,inactive
R3HCC1L,SID160738660,0.824,98.3,1.39,76.1,inactive
R3HCC1L,SID160738661,0.607,94,0.29,97.3,inactive
R3HCC1L,SID160738662,0.0476,82.8,0.42,82.9,inactive
CHRNA5,SID160743279,0.964,101,0.829,90.8,inactive
CHRNA5,SID160743291,-1.22,57.6,-1.41,93.3,inactive
CHRNA5,SID160743301,0.829,98.4,-0.391,122,inactive
LTO1,SID160761483,2.22,126,1.39,97.6,inactive
LTO1,SID160761484,2.63,134,2.29,82.1,inactive
LTO1,SID160761485,0.486,91.6,0.849,81.8,inactive
NUP50,SID160729166,-2.3,36.2,-2.36,75.3,inactive
NUP50,SID160729167,-0.275,76.4,-0.3,92.4,inactive
NUP50,SID160729169,-1.41,53.8,-0.37,66.3,inactive
CYSLTR1,SID160729251,-0.929,63.4,-1.03,92.9,inactive
CYSLTR1,SID160729253,1.08,103,0.417,103,inactive
CYSLTR1,SID160729254,0.692,95.7,0.0261,106,inactive
NOL4L,SID160757833,4.15,164,3.2,79.2,active
NOL4L,SID160757834,0.915,100,0.873,88.9,inactive
NOL4L,SID160757835,-0.81,65.8,0.664,61.7,inactive
DENND2D,SID160749860,2.95,141,2.32,85.4,inactive
DENND2D,SID160749861,-1.53,51.6,-1.7,90.2,inactive
DENND2D,SID160749862,0.186,85.6,0.764,78.2,inactive
ARNT2,SID160723429,0.254,86.9,0.685,81.1,inactive
ARNT2,SID160723430,1.03,102,2.02,67.1,inactive
ARNT2,SID160723431,0.578,93.4,0.732,86.1,inactive
MRPS35,SID160747088,-0.561,70.7,-0.787,97.2,inactive
MRPS35,SID160747089,-0.156,78.8,-0.49,100,inactive
MRPS35,SID160747090,0.858,99,1.15,81.8,inactive
PGK2,SID160714213,-0.769,66.6,0.541,64.5,inactive
PGK2,SID160714214,-0.377,74.4,-1.23,115,inactive
PGK2,SID160714215,0.225,86.4,-0.547,111,inactive
PLEKHG3,SID160737483,1.93,120,2.12,76.8,inactive
PLEKHG3,SID160737484,-0.423,73.5,-0.0897,84.1,inactive
PLEKHG3,SID160737485,0.855,98.9,1.19,80.7,inactive
